Our source for the log2 fold change values is the supplement of paper PMC12819154, “High-throughput peptide-centric local stability assay extends protein–ligand identification to membrane proteins, tissues and bacteria” (Nature Structural & Molecular Biology, 2025).

Sequences of proteins named here, by UniProt entry; tags and fusion partners are left off. A change or cut given only in a name is not applied to a line headed by its entry.
UniProt P53804: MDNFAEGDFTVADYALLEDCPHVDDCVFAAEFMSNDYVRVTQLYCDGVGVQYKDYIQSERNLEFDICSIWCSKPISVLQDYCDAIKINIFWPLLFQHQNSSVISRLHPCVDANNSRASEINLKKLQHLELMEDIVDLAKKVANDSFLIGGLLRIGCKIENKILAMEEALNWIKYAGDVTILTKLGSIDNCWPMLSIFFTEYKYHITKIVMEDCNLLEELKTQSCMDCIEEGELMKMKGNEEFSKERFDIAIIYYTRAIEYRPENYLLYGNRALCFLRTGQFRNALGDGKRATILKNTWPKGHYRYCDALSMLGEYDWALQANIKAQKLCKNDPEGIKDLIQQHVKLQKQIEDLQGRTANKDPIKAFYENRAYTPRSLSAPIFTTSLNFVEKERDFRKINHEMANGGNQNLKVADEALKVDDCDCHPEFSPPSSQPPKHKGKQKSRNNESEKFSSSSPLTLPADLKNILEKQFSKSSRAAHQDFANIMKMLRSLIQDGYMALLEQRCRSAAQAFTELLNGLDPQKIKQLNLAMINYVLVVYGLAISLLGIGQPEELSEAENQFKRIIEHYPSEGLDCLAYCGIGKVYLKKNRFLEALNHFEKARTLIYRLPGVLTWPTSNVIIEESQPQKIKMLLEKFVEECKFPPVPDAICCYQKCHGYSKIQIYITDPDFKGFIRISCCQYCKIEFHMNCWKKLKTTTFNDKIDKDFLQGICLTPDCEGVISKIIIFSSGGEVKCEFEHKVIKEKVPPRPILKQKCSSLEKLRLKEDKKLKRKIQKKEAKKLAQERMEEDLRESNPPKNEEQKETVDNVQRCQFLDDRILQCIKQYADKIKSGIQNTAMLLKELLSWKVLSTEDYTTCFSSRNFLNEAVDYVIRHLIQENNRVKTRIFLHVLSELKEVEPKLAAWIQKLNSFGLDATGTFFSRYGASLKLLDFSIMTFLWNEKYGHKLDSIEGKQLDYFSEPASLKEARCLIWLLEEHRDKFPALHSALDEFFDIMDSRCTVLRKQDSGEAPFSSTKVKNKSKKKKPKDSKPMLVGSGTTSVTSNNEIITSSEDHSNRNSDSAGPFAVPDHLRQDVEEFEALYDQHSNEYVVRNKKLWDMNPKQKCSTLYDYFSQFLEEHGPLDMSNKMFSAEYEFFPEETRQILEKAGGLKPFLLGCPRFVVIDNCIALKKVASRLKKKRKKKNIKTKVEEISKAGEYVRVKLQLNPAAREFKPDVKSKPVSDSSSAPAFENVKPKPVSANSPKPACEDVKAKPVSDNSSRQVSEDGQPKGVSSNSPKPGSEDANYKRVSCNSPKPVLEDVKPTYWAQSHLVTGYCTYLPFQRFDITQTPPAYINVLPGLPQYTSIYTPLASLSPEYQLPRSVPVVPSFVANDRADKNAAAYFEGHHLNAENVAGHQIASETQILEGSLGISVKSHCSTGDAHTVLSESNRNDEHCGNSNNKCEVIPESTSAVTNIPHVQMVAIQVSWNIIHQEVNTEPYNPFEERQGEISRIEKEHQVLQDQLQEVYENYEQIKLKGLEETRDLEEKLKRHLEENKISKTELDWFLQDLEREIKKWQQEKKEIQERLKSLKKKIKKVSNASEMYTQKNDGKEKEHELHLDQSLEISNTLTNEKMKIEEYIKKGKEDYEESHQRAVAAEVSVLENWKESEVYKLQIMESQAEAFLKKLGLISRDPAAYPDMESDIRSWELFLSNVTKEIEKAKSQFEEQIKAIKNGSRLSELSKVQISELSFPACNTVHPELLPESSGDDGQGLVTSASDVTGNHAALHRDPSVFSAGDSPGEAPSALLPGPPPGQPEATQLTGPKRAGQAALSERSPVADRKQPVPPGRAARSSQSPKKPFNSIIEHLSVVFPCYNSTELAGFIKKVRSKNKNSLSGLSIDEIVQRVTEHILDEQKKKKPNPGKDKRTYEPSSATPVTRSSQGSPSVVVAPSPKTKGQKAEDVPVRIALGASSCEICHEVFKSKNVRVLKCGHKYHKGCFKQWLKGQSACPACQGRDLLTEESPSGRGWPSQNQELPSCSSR
UniProt P51687: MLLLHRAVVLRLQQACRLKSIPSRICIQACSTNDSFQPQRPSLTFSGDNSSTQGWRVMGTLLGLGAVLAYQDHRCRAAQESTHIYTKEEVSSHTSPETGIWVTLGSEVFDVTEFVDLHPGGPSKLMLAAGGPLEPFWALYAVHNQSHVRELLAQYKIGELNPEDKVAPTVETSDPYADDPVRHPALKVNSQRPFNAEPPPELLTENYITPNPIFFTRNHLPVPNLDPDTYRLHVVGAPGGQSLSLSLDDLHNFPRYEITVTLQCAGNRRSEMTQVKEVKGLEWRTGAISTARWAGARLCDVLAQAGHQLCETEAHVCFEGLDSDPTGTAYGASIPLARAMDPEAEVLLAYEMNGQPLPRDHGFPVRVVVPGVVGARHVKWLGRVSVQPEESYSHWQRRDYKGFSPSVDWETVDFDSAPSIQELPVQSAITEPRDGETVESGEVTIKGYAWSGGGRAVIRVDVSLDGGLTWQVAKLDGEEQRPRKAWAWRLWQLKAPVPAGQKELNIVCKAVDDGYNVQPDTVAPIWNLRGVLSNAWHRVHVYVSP
UniProt P54105: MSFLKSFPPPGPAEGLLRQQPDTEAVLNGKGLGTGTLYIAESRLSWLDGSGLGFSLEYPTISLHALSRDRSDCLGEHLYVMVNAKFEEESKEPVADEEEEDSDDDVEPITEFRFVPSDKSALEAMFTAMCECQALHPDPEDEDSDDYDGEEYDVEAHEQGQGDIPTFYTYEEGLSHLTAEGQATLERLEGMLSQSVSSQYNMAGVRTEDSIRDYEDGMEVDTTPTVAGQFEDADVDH
UniProt P51153: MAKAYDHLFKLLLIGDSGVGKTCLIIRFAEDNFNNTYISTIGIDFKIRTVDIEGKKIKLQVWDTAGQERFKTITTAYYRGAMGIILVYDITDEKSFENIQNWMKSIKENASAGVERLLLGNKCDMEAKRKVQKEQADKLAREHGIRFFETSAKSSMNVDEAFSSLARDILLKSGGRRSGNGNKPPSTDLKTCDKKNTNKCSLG
UniProt P48449: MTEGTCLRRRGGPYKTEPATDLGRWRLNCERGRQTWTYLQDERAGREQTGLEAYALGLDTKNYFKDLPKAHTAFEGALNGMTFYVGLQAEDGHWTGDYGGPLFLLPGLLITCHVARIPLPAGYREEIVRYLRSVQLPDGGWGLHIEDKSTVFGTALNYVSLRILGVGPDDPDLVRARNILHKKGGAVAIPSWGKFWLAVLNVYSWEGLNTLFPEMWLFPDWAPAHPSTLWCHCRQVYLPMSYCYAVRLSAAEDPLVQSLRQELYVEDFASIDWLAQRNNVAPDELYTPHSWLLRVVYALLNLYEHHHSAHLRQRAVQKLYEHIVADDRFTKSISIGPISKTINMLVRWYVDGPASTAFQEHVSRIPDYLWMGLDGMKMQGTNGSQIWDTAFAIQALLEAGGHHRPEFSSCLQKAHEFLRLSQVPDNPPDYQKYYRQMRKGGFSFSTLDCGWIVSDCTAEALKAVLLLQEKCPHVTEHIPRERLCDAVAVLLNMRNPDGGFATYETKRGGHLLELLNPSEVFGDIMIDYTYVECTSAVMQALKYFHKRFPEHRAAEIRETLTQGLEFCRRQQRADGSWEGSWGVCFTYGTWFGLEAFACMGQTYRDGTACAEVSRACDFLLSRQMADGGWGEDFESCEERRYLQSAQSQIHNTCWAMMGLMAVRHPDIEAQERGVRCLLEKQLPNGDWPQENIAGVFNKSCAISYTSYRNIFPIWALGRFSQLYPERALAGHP
UniProt P49368: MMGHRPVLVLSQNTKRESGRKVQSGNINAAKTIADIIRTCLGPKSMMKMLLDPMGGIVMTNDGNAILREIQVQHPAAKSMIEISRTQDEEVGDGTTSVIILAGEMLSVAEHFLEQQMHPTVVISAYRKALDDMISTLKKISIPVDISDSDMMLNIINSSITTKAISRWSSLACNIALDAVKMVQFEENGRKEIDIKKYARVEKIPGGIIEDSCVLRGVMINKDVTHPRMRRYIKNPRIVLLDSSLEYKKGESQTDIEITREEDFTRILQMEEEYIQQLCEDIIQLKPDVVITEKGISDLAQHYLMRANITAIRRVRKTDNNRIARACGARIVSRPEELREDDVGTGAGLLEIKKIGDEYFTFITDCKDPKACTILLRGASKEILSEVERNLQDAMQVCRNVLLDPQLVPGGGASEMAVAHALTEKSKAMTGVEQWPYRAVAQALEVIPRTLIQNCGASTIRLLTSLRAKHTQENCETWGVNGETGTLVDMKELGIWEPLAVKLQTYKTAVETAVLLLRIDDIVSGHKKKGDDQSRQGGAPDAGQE
UniProt P49642: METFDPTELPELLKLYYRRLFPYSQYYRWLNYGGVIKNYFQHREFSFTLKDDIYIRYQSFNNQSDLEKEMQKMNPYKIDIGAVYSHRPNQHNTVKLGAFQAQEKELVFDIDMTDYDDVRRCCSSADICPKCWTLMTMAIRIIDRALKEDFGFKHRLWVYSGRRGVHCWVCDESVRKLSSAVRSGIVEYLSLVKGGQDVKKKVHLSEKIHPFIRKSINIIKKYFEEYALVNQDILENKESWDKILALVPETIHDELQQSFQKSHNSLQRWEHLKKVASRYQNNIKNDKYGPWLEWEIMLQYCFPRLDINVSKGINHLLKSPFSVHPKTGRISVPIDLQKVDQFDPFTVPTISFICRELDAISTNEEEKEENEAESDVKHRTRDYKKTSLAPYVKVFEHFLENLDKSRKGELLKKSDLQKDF
UniProt P49005: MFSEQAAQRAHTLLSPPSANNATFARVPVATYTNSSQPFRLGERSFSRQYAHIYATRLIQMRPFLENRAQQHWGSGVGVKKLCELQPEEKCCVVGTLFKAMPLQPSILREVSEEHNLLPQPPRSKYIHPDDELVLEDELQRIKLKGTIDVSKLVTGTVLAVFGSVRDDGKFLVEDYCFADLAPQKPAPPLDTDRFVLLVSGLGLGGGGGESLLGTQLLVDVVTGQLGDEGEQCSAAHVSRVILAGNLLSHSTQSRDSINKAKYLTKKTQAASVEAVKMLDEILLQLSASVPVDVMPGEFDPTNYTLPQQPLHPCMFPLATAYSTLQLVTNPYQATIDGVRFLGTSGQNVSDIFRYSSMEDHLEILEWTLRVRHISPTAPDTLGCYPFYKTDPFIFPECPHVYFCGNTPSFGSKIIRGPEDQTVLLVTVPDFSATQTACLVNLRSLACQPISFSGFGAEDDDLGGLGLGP
UniProt P49326: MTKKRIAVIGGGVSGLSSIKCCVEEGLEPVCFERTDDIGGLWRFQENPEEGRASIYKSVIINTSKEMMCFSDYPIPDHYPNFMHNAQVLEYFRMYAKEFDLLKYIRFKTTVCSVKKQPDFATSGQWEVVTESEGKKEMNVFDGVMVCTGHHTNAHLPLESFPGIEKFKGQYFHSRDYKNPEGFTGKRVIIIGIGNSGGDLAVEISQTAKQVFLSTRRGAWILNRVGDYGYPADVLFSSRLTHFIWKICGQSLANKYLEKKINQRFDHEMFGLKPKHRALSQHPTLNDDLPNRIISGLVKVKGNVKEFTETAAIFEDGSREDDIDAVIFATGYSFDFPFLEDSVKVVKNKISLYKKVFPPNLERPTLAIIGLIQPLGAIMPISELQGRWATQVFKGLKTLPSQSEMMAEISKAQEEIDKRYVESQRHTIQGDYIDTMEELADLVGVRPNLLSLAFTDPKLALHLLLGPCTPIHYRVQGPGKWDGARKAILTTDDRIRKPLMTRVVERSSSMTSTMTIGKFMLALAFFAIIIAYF

This is one part of the list. Most values lie at the level of the controls, where differences are scatter.

Compound in this assay: CN[C@@H]1C[C@H]2O[C@@](C)([C@@H]1OC)n1c3ccccc3c3c4c(c5c6ccccc6n2c5c31)C(=O)NC4 [staurosporine]
The assay is described as follows: log2 fold change of tryptic peptide abundance, ligand vs vehicle (limited proteolysis) (log2 ratio); higher = more trypsin-susceptible (destabilized). The following applies: ligand concentration: 20 uM; sample: K562 cleared lysate; digestion: 4 min, 22 C (HT-PELSA RT4min, Orbitrap Astral).

Take “TTC3 (peptide sequence: TYEPSSATPVTR, peptide start residue: 1911) (UniProt P53804)”: the log2 fold change is -0.293.

Take “RPL27A (peptide sequence: NQSFCPTVNLDKLWTLVSEQTR, peptide start residue: 66) (UniProt P46776)”: the log2 fold change was -0.305.

With “SUOX (peptide sequence: VVVPGVVGAR, peptide start residue: 367) (UniProt P51687)”, the log2 fold change is -0.14.

With “CLNS1A (peptide sequence: DRSDCLGEHLYVMVNAK, peptide start residue: 69) (UniProt P54105)”, the log2 fold change is -0.196.

As for “RAB13 (peptide sequence: SFENIQNWMK, peptide start residue: 95) (UniProt P51153)”, the log2 fold change worked out at 0.646.

For the target “LSS (peptide sequence: WYVDGPASTAFQEHVSR, peptide start residue: 348) (UniProt P48449)”, the log2 fold change is -0.379.

Take “CCT3 (peptide sequence: GESQTDIEITR, peptide start residue: 250) (UniProt P49368)”: the log2 fold change was -0.23.

On to “PRIM1 (peptide sequence: GVHCWVCDESVR, peptide start residue: 164) (UniProt P49642)”, for which the log2 fold change was -0.199.

Regarding “POLD2 (peptide sequence: VPVATYTNSSQPFR, peptide start residue: 27) (UniProt P49005)”, the log2 fold change is 0.269.

As to “UniProt P49326 (peptide sequence: KINQRFDHEMFGLK, peptide start residue: 260)”, the log2 fold change worked out at 0.0649.
